From the supplement of paper PMC6411743
± gives the standard deviation of the averaged measurements. Some of the results follow.

By UniProt entry, the sequences of proteins in these tests, tags left out. Where a name states a change or a piece, a line headed by the entry shows the natural chain unless it says otherwise.
UniProt P46108: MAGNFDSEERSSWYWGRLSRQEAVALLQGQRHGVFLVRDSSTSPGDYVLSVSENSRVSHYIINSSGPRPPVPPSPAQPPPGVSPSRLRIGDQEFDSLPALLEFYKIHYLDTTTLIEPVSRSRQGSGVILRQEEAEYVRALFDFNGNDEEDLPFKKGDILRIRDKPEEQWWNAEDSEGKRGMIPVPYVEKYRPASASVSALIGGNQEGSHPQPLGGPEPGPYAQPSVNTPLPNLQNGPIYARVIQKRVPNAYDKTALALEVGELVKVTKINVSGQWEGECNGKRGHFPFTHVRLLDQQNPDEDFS
UniProt P37108: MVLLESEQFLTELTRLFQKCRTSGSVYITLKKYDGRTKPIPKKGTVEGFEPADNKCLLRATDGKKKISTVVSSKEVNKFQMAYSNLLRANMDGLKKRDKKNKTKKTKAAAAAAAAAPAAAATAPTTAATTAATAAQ
UniProt P27824: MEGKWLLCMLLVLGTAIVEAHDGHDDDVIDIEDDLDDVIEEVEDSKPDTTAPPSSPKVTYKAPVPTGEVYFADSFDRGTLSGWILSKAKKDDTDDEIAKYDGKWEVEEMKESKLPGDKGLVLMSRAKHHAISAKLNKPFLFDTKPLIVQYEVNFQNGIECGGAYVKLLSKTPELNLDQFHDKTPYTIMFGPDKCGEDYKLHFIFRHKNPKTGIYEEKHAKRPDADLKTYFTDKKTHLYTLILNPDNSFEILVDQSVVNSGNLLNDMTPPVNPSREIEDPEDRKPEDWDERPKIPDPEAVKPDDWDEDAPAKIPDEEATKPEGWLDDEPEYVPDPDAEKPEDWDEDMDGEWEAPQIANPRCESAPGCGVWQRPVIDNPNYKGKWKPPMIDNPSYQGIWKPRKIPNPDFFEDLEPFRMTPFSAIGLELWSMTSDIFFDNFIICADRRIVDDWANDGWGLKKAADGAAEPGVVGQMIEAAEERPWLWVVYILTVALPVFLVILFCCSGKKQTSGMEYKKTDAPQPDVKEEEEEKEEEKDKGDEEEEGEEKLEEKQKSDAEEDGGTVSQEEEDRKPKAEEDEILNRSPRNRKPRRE
UniProt P35221: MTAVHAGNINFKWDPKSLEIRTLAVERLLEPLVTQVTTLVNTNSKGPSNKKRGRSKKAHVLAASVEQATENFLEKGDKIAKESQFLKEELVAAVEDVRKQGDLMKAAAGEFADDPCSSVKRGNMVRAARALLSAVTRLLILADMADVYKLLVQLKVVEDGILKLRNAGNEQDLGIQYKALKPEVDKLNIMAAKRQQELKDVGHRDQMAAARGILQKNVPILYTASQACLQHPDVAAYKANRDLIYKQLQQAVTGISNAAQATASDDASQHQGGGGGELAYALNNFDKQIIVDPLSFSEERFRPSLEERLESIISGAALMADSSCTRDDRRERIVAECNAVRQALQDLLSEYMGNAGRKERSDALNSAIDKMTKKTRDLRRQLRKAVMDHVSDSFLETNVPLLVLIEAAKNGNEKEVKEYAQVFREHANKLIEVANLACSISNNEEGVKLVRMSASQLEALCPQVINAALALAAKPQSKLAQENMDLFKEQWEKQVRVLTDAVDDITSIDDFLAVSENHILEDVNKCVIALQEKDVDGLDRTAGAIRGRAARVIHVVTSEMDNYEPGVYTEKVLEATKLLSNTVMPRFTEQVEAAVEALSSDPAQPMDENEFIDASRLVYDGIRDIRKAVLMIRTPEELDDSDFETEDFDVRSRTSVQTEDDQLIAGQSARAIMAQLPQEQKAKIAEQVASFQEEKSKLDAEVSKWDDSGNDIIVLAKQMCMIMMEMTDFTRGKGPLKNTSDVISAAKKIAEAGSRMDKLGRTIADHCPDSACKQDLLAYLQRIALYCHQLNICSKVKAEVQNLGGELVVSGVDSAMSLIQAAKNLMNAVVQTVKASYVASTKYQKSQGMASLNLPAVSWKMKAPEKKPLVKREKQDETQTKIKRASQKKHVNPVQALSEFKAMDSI
UniProt P48634: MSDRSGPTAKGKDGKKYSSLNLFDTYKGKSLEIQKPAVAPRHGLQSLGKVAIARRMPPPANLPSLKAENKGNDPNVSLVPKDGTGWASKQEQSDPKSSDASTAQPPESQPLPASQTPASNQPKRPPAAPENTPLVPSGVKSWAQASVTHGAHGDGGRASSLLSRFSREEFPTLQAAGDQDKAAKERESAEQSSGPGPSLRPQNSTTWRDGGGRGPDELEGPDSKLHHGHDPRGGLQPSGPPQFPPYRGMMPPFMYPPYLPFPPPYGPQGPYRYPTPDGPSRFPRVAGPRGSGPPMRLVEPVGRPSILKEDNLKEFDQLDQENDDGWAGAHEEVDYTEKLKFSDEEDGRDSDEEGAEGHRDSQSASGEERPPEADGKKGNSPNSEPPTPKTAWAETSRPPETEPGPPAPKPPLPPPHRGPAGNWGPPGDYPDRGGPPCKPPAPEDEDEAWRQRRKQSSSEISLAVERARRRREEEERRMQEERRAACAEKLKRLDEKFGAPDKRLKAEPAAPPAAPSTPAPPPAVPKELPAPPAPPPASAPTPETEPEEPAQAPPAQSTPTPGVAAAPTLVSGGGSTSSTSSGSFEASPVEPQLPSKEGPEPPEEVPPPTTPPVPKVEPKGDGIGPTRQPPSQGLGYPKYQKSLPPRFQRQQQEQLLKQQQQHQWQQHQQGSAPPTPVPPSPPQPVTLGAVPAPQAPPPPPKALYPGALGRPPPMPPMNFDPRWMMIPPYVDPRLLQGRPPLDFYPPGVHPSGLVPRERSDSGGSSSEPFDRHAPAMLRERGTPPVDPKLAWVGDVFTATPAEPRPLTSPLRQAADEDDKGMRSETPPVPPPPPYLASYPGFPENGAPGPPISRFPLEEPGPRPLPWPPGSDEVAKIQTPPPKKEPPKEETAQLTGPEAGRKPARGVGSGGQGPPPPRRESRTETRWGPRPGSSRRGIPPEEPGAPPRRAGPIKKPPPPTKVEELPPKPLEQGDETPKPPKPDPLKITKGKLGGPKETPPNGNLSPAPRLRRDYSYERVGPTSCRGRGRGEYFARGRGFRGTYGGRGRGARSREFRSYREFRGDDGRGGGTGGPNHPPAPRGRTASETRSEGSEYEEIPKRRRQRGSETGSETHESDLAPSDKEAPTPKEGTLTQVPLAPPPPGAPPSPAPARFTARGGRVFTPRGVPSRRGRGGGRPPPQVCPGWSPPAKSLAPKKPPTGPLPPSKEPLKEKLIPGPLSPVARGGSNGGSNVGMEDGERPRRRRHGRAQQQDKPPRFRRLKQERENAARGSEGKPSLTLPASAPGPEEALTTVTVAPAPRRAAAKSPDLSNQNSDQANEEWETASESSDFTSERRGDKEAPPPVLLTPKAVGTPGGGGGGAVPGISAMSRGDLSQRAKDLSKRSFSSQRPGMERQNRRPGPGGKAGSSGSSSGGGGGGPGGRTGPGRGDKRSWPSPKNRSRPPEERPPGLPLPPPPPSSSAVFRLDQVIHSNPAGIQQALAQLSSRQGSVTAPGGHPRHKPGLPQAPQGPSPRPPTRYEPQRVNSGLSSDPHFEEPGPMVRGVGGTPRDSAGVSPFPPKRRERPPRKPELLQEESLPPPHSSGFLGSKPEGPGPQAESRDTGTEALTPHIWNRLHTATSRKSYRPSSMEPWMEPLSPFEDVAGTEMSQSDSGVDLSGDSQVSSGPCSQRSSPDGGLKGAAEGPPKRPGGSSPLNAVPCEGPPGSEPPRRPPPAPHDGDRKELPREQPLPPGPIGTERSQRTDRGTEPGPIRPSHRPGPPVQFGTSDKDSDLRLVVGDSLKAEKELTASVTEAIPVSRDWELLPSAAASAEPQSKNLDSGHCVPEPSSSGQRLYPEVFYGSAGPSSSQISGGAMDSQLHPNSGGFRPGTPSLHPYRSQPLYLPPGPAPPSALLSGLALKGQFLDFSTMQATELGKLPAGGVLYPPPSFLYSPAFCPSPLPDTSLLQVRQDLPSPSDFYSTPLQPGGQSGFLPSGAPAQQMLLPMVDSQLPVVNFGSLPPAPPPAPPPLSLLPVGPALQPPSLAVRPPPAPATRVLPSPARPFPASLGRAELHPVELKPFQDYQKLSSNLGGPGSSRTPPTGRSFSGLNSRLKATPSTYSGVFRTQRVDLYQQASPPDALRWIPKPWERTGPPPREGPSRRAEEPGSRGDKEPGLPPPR
UniProt P35270: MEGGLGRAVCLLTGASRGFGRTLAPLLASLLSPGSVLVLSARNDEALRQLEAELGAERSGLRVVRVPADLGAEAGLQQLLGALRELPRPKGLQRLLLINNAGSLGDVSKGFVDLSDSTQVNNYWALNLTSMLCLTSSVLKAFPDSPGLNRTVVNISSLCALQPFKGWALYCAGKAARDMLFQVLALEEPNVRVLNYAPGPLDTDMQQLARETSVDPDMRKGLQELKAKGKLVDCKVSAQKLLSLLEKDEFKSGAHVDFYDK
UniProt P35251: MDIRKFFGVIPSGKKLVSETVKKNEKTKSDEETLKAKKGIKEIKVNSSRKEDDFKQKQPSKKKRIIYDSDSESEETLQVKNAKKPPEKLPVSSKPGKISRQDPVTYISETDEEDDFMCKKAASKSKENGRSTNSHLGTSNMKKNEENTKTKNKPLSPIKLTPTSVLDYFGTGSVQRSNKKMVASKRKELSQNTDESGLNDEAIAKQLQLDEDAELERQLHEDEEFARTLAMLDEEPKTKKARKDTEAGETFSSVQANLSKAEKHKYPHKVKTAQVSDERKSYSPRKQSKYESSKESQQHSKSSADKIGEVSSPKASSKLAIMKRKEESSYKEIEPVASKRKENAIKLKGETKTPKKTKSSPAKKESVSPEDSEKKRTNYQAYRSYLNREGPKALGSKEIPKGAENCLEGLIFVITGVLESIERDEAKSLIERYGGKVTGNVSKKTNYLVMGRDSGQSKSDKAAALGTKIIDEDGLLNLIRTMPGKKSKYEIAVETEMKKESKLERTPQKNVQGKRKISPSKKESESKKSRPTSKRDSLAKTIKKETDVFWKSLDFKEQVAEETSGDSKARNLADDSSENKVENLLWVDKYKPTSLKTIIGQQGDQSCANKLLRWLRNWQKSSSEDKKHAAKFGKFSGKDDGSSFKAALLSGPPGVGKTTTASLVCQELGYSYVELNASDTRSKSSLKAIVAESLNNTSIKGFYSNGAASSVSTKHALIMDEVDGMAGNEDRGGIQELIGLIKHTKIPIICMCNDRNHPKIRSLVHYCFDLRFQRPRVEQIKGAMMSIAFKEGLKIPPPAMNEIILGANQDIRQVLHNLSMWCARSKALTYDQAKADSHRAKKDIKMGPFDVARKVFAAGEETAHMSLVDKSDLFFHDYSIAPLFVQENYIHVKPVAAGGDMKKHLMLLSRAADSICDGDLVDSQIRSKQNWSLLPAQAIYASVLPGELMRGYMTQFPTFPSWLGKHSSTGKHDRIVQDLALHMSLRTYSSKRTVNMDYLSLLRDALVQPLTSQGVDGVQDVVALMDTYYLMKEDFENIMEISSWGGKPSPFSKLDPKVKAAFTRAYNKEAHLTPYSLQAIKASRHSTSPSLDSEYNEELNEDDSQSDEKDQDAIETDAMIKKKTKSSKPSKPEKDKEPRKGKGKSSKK
UniProt P48729: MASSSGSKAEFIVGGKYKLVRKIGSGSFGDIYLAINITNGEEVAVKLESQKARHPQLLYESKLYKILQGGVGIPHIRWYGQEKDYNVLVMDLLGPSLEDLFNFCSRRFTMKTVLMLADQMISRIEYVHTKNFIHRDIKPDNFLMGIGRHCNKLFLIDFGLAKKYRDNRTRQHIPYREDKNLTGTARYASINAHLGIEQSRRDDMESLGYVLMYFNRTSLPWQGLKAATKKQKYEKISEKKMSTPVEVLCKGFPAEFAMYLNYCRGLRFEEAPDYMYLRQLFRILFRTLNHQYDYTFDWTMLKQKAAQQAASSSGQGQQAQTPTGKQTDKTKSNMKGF

Compound: Nc1nc2c(ncn2[C@@H]2O[C@H](COP(=O)(O)OP(=O)(O)OP(=O)(O)O)[C@@H](O)[C@H]2O)c(=O)[nH]1 [guanosine triphosphate]
Assay: NP40-soluble protein abundance relative to vehicle (solubility fold change) (ratio); higher = more soluble protein in presence of GTP
Procedure, shortened: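 Data come from three independent experiments in which Dounce-homogenised Jurkat crude lysate was treated at eight concentrations from 0.1 to 10 mM. Treatment ran 10 min at room temperature and then 3 min at 37 °C, after which 0.8% NP40 and benzonase were added for 60 min at 4 °C before ultracentrifugation. The supernatant underwent TMT labelling and LC-MS/MS, and vsn-normalised intensities were expressed as fold change against the detergent-processed vehicle in each replicate.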

CRK (UniProt P46108)
NP40-soluble protein abundance (concentration: 0.1mM): 0.966 ± 0.031
NP40-soluble protein abundance (concentration: 0.5mM): 1 ± 0.011
NP40-soluble protein abundance (concentration: 1mM): 1 ± 0.083
NP40-soluble protein abundance (concentration: 2mM): 0.925 ± 0.059
NP40-soluble protein abundance (concentration: 4mM): 0.998 ± 0.072
NP40-soluble protein abundance (concentration: 6mM): 0.9 ± 0.059
NP40-soluble protein abundance (concentration: 8mM): 0.951 ± 0.038
NP40-soluble protein abundance (concentration: 10mM): 0.983 ± 0.077

SRP14 (UniProt P37108)
NP40-soluble protein abundance (concentration: 0.1mM): 0.806 ± 0.041
NP40-soluble protein abundance (concentration: 0.5mM): 0.819 ± 0.014
NP40-soluble protein abundance (concentration: 1mM): 0.968 ± 0.081
NP40-soluble protein abundance (concentration: 2mM): 0.948 ± 0.029
NP40-soluble protein abundance (concentration: 4mM): 0.915 ± 0.051
NP40-soluble protein abundance (concentration: 6mM): 0.965 ± 0.016
NP40-soluble protein abundance (concentration: 8mM): 0.917 ± 0.037
NP40-soluble protein abundance (concentration: 10mM): 1.06 ± 0.082

UniProt P27824 and related entries
NP40-soluble protein abundance (concentration: 0.1mM): 0.965 ± 0.034
NP40-soluble protein abundance (concentration: 0.5mM): 1 ± 0.013
NP40-soluble protein abundance (concentration: 1mM): 0.95 ± 0.04
NP40-soluble protein abundance (concentration: 2mM): 0.928 ± 0.048
NP40-soluble protein abundance (concentration: 4mM): 0.883 ± 0.061
NP40-soluble protein abundance (concentration: 6mM): 0.922 ± 0.06
NP40-soluble protein abundance (concentration: 8mM): 0.906 ± 0.035
NP40-soluble protein abundance (concentration: 10mM): 0.896 ± 0.051

UniProt P49959 and related entries
NP40-soluble protein abundance (concentration: 0.1mM): 1.02 ± 0.011
NP40-soluble protein abundance (concentration: 0.5mM): 1.05 ± 0.041
NP40-soluble protein abundance (concentration: 1mM): 1.01 ± 0.013
NP40-soluble protein abundance (concentration: 2mM): 1 ± 0.037
NP40-soluble protein abundance (concentration: 4mM): 1.01 ± 0.036
NP40-soluble protein abundance (concentration: 6mM): 1.01 ± 0.044
NP40-soluble protein abundance (concentration: 8mM): 1.03 ± 0.052
NP40-soluble protein abundance (concentration: 10mM): 1.02 ± 0.053

UniProt P35221 and related entries
NP40-soluble protein abundance (concentration: 0.1mM): 1.02 ± 0.039
NP40-soluble protein abundance (concentration: 0.5mM): 0.973 ± 0.089
NP40-soluble protein abundance (concentration: 1mM): 1.01 ± 0.077
NP40-soluble protein abundance (concentration: 2mM): 0.961 ± 0.036
NP40-soluble protein abundance (concentration: 4mM): 0.985 ± 0.072
NP40-soluble protein abundance (concentration: 6mM): 0.944 ± 0.071
NP40-soluble protein abundance (concentration: 8mM): 0.995 ± 0.012
NP40-soluble protein abundance (concentration: 10mM): 0.969 ± 0.061

RPL27A (UniProt P46776)
NP40-soluble protein abundance (concentration: 0.1mM): 1.02 ± 0.095
NP40-soluble protein abundance (concentration: 0.5mM): 0.993 ± 0.11
NP40-soluble protein abundance (concentration: 1mM): 1.06 ± 0.13
NP40-soluble protein abundance (concentration: 2mM): 1.06 ± 0.18
NP40-soluble protein abundance (concentration: 4mM): 0.984 ± 0.17
NP40-soluble protein abundance (concentration: 6mM): 0.907 ± 0.16
NP40-soluble protein abundance (concentration: 8mM): 0.838 ± 0.19
NP40-soluble protein abundance (concentration: 10mM): 0.984 ± 0.22

UniProt P48634 and related entries
NP40-soluble protein abundance (concentration: 0.1mM): 1.07 ± 0.034
NP40-soluble protein abundance (concentration: 0.5mM): 1.06 ± 0.0091
NP40-soluble protein abundance (concentration: 1mM): 1.19 ± 0.1
NP40-soluble protein abundance (concentration: 2mM): 1.27 ± 0.03
NP40-soluble protein abundance (concentration: 4mM): 1.42 ± 0.062
NP40-soluble protein abundance (concentration: 6mM): 1.52 ± 0.096
NP40-soluble protein abundance (concentration: 8mM): 1.7 ± 0.19
NP40-soluble protein abundance (concentration: 10mM): 1.84 ± 0.28

CAPZA2 (UniProt P47755)
NP40-soluble protein abundance (concentration: 0.1mM): 0.929 ± 0.072
NP40-soluble protein abundance (concentration: 0.5mM): 1 ± 0.049
NP40-soluble protein abundance (concentration: 1mM): 0.935 ± 0.053
NP40-soluble protein abundance (concentration: 2mM): 0.96 ± 0.065
NP40-soluble protein abundance (concentration: 4mM): 0.918 ± 0.087
NP40-soluble protein abundance (concentration: 6mM): 0.965 ± 0.037
NP40-soluble protein abundance (concentration: 8mM): 0.943 ± 0.08
NP40-soluble protein abundance (concentration: 10mM): 0.977 ± 0.074

SPR (UniProt P35270)
NP40-soluble protein abundance (concentration: 0.1mM): 0.974 ± 0.075
NP40-soluble protein abundance (concentration: 0.5mM): 0.956 ± 0.06
NP40-soluble protein abundance (concentration: 1mM): 0.922 ± 0.051
NP40-soluble protein abundance (concentration: 2mM): 0.912 ± 0.04
NP40-soluble protein abundance (concentration: 4mM): 0.938 ± 0.068
NP40-soluble protein abundance (concentration: 6mM): 0.862 ± 0.035
NP40-soluble protein abundance (concentration: 8mM): 0.897 ± 0.055
NP40-soluble protein abundance (concentration: 10mM): 0.893 ± 0.06

PIK3CG (UniProt P48736)
NP40-soluble protein abundance (concentration: 0.1mM): 1.13 ± 0.23
NP40-soluble protein abundance (concentration: 0.5mM): 1.03 ± 0.17
NP40-soluble protein abundance (concentration: 1mM): 1.02 ± 0.24
NP40-soluble protein abundance (concentration: 2mM): 1.03 ± 0.12
NP40-soluble protein abundance (concentration: 4mM): 1.07 ± 0.027
NP40-soluble protein abundance (concentration: 6mM): 1.01 ± 0.092
NP40-soluble protein abundance (concentration: 8mM): 0.963 ± 0.067
NP40-soluble protein abundance (concentration: 10mM): 0.886 ± 0.05

UniProt P35251 and related entries
NP40-soluble protein abundance (concentration: 0.1mM): 1.04 ± 0.019
NP40-soluble protein abundance (concentration: 0.5mM): 1.11 ± 0.054
NP40-soluble protein abundance (concentration: 1mM): 1.18 ± 0.049
NP40-soluble protein abundance (concentration: 2mM): 1.24 ± 0.071
NP40-soluble protein abundance (concentration: 4mM): 1.36 ± 0.1
NP40-soluble protein abundance (concentration: 6mM): 1.4 ± 0.087
NP40-soluble protein abundance (concentration: 8mM): 1.45 ± 0.14
NP40-soluble protein abundance (concentration: 10mM): 1.46 ± 0.12

UniProt P48729 and related entries
NP40-soluble protein abundance (concentration: 0.1mM): 0.942 ± 0.14
NP40-soluble protein abundance (concentration: 0.5mM): 0.978 ± 0.12
NP40-soluble protein abundance (concentration: 1mM): 0.91 ± 0.13
NP40-soluble protein abundance (concentration: 2mM): 0.953 ± 0.14
NP40-soluble protein abundance (concentration: 4mM): 0.981 ± 0.15
NP40-soluble protein abundance (concentration: 6mM): 1.02 ± 0.18
NP40-soluble protein abundance (concentration: 8mM): 1.04 ± 0.19
NP40-soluble protein abundance (concentration: 10mM): 1.06 ± 0.21

FNTB (UniProt P49356)
NP40-soluble protein abundance (concentration: 0.1mM): 1.02 ± 0.16
NP40-soluble protein abundance (concentration: 0.5mM): 0.944 ± 0.093
NP40-soluble protein abundance (concentration: 1mM): 0.976 ± 0.032
NP40-soluble protein abundance (concentration: 2mM): 1.02 ± 0.017
NP40-soluble protein abundance (concentration: 4mM): 0.965 ± 0.12
NP40-soluble protein abundance (concentration: 6mM): 0.905 ± 0.085
NP40-soluble protein abundance (concentration: 8mM): 0.966 ± 0.064
NP40-soluble protein abundance (concentration: 10mM): 0.96 ± 0.12
